Measured values reported in paper PMC5652782.
Results are given in words; binding and its absence hold for the method and conditions named. Binding seen in cells or lysates may run through a third protein. Some results given as binding are weak or reduced against the parent protein; the word gives no strength.

Chains of the proteins cited; added tags and fusions are not shown. Lines headed by an entry give the natural chain unless they say otherwise; changes in a name come on top. A line that says so, or that is headed by a name, gives the form on record, which may keep a tag or linker.
UniProt P30281: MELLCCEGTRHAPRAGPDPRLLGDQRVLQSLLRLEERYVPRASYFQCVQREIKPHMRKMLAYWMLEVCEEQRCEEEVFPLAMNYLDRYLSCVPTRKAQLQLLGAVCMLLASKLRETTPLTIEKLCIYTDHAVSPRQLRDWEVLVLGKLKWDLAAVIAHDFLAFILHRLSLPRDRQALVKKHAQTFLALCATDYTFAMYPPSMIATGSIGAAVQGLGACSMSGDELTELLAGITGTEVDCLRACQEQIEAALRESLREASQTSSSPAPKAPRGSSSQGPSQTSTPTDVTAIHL
UniProt P63074: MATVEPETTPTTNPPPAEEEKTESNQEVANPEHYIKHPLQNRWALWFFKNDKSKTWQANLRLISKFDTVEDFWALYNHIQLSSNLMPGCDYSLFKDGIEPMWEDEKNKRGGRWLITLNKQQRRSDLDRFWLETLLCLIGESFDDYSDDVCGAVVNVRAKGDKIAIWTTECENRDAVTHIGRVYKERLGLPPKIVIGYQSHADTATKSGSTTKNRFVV
UniProt P06730: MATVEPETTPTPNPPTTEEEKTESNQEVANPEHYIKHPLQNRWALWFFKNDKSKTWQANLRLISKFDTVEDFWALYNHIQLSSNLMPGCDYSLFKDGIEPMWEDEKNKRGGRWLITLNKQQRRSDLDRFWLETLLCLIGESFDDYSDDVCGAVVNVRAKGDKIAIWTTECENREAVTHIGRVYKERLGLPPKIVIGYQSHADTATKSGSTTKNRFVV
UniProt Q00534: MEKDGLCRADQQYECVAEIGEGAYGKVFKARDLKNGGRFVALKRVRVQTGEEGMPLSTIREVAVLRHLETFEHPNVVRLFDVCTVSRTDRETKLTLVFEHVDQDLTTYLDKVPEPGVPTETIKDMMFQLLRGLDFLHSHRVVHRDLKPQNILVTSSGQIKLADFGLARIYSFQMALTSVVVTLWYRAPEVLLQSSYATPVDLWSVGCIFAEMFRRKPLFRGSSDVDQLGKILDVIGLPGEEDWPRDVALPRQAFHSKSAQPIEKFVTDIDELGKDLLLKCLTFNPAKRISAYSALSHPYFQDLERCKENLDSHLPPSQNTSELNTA
UniProt P04792: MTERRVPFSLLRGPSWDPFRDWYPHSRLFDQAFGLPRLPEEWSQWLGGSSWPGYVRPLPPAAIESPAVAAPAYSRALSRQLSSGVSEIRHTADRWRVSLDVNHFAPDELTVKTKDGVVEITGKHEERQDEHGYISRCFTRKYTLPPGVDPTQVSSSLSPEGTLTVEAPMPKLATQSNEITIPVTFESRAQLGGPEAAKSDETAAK
Hsp27 3A phosphorylation mutant (constitutively unphosphorylated) (P04792, form named): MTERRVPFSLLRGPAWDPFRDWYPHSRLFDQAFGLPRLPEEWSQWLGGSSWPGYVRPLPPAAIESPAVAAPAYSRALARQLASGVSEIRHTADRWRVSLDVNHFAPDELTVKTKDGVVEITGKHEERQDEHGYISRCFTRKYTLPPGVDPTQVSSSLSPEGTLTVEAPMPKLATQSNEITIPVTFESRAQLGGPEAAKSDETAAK
Hsp27 3D phosphorylation mutant (constitutively phosphorylated mimic) (P04792, form named): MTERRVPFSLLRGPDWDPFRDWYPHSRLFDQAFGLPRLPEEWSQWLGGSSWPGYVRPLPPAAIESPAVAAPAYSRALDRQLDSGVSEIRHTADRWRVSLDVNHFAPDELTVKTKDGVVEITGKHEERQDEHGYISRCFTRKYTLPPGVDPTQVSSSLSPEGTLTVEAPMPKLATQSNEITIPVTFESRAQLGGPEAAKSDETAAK

Key:
CCND3/Luc = CCND3/Luc (UniProt P30281); assay: FRET or BRET; extracts of HEK293T cells transfected separately with donor or acceptor; 1 μg (4 μg for CCND3/luc) donor lysate and 0 to 15 μg acceptor lysate, pre-incubated 2 h with DMSO or compound 14 (0, 20, 50, 100 μM), mixed for 30 min; coelenterazine
[1] = biological target: eIF4E (endogenous, REG cells) (rat (endogenous in REG)) (UniProt P63074); assay: co-IP; REG cells transiently transfected with Hsp27 plasmids; cleared lysates precipitated with rabbit anti-eIF4E antibody overnight at 4°C, TrueBlot anti-rabbit beads; blot for histidine and eIF4E
[2] = biological target: eIF4E (endogenous, PC-3 cells) (human (endogenous in PC-3)) (UniProt P06730); assay: condition: only cells treated with compound 14 during 48h; co-IP; endogenous proteins of PC-3 cells treated with compound 14 for 48h; precipitated with eIF4E rabbit antibody; blot for Hsp27 and eIF4E
[3] = biological target: eIF4E (endogenous, PC-3 cells) (human (endogenous in PC-3)) (UniProt P06730); assay: co-IP; endogenous proteins of PC-3 cells treated with DMSO (control) for 48h; precipitated with eIF4E rabbit antibody or rabbit IgG (control); blot for Hsp27 and eIF4E
[4] = biological target: N-ter luc/eIF4E fusion protein (BRET donor) (UniProt P06730); assay: FRET or BRET; living HEK293T cells co-transfected with 0.2 μg donor plasmid N-ter luc/eIF4E and 0 to 1 μg acceptor plasmid Hsp27/YFP C-ter; coelenterazine
[5] = biological target: N-ter luc/eIF4E fusion protein (BRET donor) (UniProt P06730); assay: FRET or BRET; extracts of HEK293T cells transfected separately with donor or acceptor; 1 μg (4 μg for CCND3/luc) donor lysate and 0 to 15 μg acceptor lysate, pre-incubated 2 h with DMSO or compound 14 (0, 20, 50, 100 μM), mixed for 30 min; coelenterazine

Substance	binding [1]	further results
CDK6/YFP (from UniProt Q00534 1-326)	–	binding (CCND3/Luc): binds
Hsp27 3A phosphorylation mutant (constitutively unphosphorylated) (from UniProt P04792 1-205)	binds	–
Hsp27 3D phosphorylation mutant (constitutively phosphorylated mimic) (from UniProt P04792 1-205)	binds	–
Hsp27 (endogenous, PC-3 cells) (from UniProt P04792 1-205)	–	binding [2]: no binding; binding [3]: binds
Hsp27 C1 truncated mutant (residues 93-205) (from UniProt P04792 93-205) (domain or fragment)	binds	–
Hsp27 N1 truncated mutant (residues 1-93) (from UniProt P04792 1-93) (domain or fragment)	no binding	–
Hsp27 N2 truncated mutant (residues 1-173) (from UniProt P04792 1-173) (domain or fragment)	no binding	–
Hsp27 wild type (WT) (from UniProt P04792 1-205)	binds	–
Hsp27/YFP C-ter fusion protein (BRET acceptor) (from UniProt P04792 1-205)	–	binding [4]: binds; binding [5]: binds
